The results in this text go back to PMC7017090, “Repaglinide Silences the FOXO3/Lumican Axis and Represses the Associated Metastatic Potential of Neuronal Cancer Cells” (Cells, 2019).

Amino acid sequences for entries named in this document (tags omitted). Residues count along the entry.
UniProt O43524, 156-269: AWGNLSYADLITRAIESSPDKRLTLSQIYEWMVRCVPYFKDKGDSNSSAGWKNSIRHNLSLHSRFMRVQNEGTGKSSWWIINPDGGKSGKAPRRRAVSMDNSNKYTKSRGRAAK

Construct, isoform or probe ends are uncertain for at least one entry. The comparison behind a weaker result is the experiment's own reference, which may not be listed here. For part of these data: At least one result comes from cells or an extract, where the contact may be indirect. For part of these data: At least one verdict was read from the data and is not stated in words by the source.

In one data set the target is FOXO3-DBD (human) (UniProt O43524). In words: EMSA. The settings on record: with increasing repaglinide, dose-dependent loss of shift; Not stated; FPA and FAM-EMSA as described in ref 24; recombinant protein; residues 156-269.
A further data set deals with FOXO3(A3)ERtm (UniProt O43524). In words: EMSA. The settings on record: SH-EP/FOXO3 cell extract, 50 nM 4OHT, Not stated, protein in an extract. For orientation: A gel shift assay detects complexes by their altered migration in electrophoresis.

With “AGCAAAGTTGTTTTTGATAATG (double strand) [FoxP3 oligonucleotide (FAM)]”, the binding result with FOXO3-DBD (human) was “binds more weakly”; with FOXO3(A3)ERtm (cells treated with 55 uM repaglinide 4 h, complex formation inhibited, FPA and FAM-EMSA as described in ref …) it was “binds more weakly”; with FOXO3(A3)ERtm (FPA and FAM-EMSA as described in ref 24), “binds”.
